Chains of the proteins cited; added tags and fusions are not shown. Lines headed by an entry give the natural chain unless they say otherwise; changes in a name come on top.
UniProt Q9Y243: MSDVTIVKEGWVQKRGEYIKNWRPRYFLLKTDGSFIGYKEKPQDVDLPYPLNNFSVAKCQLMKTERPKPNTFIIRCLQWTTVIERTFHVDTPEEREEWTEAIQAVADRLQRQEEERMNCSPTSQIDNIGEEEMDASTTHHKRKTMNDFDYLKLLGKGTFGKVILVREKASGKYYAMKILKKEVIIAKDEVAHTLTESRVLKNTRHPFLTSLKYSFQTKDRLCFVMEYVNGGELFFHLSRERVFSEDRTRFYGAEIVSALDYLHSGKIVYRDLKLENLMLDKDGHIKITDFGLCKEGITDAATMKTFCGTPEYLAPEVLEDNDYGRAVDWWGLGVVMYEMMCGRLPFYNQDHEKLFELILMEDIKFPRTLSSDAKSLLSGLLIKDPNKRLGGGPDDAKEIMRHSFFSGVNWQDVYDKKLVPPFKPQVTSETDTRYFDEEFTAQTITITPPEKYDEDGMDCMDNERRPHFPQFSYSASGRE
UniProt Q96GD4, whole entry, looked up: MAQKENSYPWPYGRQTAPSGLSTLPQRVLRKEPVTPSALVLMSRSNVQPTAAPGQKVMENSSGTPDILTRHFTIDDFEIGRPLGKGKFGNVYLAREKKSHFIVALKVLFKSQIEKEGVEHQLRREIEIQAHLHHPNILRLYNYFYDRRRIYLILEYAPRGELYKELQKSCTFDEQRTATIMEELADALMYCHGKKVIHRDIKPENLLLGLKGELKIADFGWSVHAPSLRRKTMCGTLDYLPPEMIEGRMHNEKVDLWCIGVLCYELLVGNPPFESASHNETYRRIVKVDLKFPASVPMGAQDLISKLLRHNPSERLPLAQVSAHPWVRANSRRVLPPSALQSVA
UniProt O15530: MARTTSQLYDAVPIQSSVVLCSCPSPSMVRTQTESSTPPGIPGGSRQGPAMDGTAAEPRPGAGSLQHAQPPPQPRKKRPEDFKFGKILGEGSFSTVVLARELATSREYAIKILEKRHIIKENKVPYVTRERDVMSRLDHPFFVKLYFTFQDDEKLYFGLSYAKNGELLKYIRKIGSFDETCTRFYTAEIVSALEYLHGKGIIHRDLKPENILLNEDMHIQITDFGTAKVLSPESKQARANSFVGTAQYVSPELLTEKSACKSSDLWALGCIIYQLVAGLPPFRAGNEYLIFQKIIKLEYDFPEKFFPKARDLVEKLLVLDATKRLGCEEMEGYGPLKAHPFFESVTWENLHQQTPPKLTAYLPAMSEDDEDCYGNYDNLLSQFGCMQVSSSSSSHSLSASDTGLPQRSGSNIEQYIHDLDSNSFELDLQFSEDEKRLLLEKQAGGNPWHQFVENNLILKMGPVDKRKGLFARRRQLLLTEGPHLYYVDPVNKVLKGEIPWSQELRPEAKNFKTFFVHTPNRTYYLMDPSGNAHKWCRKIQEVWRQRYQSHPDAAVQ
UniProt Q05655: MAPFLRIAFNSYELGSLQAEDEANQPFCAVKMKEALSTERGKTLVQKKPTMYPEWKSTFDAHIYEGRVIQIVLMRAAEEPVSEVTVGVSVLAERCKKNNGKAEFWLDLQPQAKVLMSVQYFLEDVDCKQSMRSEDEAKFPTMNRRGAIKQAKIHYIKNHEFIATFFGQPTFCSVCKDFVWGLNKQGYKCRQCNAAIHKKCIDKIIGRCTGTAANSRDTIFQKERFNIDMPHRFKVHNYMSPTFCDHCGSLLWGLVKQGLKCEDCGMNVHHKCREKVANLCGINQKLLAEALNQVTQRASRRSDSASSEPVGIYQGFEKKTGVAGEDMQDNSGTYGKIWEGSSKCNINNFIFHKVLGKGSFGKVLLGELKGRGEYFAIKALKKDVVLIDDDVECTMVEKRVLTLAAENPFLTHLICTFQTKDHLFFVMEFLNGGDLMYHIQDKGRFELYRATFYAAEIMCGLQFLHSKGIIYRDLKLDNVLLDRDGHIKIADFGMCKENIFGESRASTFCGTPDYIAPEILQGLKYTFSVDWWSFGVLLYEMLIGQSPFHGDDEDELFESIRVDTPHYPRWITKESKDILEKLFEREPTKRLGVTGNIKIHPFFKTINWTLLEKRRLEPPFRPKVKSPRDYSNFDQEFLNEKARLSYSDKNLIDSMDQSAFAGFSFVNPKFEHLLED
UniProt Q02156: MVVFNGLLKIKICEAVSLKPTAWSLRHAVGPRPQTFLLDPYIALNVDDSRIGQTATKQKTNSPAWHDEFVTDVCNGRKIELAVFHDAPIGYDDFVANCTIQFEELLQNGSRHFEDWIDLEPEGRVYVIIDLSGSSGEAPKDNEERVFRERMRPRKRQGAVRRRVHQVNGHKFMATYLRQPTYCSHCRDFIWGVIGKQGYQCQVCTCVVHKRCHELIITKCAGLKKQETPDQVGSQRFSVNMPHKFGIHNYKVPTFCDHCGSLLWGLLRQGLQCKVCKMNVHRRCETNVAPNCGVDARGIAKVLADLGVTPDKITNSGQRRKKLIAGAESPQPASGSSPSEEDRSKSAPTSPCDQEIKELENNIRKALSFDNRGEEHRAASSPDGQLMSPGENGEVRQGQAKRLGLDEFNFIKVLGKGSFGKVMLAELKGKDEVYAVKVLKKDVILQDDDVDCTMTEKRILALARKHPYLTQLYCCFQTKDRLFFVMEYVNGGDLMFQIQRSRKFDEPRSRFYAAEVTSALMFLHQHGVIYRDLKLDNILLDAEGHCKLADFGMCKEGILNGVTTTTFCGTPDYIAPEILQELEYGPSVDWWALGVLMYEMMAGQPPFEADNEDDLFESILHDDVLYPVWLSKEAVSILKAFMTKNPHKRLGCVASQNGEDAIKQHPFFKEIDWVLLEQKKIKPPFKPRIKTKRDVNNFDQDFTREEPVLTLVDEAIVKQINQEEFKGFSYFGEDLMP
UniProt Q15418, whole entry, looked up: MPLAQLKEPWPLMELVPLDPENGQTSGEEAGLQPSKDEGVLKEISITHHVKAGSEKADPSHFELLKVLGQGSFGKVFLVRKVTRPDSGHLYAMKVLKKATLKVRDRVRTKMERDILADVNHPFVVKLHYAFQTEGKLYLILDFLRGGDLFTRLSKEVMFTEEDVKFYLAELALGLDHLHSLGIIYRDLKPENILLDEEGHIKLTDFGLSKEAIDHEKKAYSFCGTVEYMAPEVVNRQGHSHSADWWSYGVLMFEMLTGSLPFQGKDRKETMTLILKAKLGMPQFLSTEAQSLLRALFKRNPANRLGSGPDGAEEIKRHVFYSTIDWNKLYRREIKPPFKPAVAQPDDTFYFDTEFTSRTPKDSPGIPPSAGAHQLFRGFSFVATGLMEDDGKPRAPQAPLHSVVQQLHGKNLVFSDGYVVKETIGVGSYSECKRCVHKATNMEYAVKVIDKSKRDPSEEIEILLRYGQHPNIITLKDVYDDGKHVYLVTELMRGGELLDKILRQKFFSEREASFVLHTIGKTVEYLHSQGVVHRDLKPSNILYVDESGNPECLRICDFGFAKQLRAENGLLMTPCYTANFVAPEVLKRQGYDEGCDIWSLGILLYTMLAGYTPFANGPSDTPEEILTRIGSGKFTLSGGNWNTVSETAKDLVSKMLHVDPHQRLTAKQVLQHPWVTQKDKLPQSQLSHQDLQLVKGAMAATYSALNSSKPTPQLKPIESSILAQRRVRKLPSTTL
UniProt P51812, whole entry, looked up: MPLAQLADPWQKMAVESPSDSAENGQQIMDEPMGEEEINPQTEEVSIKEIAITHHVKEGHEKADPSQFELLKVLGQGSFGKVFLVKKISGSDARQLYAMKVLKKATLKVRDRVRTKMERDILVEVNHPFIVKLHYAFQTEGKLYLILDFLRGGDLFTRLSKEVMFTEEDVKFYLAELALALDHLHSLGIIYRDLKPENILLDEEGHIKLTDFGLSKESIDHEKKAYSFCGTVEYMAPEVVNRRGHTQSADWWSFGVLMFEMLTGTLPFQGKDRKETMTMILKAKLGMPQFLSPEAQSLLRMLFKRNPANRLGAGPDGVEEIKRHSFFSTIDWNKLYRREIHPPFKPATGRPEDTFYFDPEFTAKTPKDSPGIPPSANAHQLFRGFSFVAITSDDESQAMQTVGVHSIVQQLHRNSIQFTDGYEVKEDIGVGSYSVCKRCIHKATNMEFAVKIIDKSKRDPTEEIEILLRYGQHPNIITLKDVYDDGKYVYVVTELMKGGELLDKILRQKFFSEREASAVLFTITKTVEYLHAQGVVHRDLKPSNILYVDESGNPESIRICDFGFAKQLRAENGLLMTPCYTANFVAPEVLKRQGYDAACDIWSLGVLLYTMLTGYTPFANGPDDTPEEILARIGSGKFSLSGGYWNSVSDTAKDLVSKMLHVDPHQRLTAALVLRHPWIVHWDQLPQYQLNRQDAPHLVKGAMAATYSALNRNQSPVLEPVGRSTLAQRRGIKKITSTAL
UniProt O75582, whole entry, looked up: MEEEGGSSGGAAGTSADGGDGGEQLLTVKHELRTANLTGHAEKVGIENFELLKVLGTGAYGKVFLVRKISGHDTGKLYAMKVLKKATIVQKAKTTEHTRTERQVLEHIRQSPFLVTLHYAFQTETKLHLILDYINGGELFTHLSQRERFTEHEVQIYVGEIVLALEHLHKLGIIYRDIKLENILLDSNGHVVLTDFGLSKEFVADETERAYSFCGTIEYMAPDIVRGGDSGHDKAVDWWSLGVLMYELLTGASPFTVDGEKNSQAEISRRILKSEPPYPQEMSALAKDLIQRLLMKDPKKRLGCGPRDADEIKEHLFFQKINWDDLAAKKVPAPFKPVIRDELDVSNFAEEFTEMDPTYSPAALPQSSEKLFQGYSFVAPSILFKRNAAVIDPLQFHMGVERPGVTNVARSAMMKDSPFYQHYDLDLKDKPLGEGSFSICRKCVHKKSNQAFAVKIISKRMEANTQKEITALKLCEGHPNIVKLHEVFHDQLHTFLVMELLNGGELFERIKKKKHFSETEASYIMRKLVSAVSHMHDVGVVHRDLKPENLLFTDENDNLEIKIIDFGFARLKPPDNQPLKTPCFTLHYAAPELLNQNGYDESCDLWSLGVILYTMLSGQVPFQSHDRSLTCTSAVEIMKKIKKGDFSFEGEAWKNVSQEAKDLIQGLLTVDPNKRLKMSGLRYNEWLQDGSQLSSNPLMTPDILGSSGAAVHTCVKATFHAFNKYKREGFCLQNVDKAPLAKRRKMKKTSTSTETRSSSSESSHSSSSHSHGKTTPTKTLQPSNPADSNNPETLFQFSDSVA
UniProt Q9HBY8: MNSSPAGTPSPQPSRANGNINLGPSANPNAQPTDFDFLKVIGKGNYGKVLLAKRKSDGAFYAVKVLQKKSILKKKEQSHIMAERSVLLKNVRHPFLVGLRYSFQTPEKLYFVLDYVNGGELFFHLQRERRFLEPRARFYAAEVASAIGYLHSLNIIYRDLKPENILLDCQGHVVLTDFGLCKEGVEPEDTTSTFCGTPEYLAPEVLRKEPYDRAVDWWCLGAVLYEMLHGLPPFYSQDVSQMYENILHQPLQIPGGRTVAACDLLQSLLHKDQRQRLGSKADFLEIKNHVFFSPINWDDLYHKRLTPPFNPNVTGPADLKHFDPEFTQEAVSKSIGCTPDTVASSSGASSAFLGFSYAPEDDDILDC
UniProt Q96BR1: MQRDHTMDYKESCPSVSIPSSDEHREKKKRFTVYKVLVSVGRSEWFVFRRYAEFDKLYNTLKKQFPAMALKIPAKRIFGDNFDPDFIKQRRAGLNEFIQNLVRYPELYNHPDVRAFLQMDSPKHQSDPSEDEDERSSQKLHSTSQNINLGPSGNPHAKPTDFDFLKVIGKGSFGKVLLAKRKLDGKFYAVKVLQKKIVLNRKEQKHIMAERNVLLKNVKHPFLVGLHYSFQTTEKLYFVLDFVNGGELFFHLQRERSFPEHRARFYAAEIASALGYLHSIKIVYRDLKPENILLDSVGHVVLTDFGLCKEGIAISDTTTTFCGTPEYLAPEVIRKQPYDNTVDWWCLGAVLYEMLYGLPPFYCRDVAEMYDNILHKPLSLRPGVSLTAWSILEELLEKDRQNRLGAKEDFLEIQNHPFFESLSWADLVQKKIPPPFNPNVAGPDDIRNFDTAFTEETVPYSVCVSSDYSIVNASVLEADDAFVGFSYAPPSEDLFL
UniProt Q9NY57, whole entry, looked up: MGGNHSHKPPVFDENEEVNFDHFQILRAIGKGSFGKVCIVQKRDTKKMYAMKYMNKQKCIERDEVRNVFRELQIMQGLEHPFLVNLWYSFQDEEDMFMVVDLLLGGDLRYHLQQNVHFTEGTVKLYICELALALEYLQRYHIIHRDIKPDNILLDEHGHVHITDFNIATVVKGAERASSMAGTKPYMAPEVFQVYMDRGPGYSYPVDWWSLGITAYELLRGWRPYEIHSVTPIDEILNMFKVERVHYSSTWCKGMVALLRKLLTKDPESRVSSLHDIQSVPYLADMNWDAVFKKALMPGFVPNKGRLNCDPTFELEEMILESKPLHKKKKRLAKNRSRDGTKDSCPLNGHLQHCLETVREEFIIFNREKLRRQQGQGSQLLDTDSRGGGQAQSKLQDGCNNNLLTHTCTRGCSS

In the kinase profiling compilation of Christmann-Franck et al. (2016):

Assays:
Assay in all cases: split-luciferase competition binding
AKT1 (human) = AKT1 (human) (UniProt P31749); details: compound 10.0 µM
AKT2 (human) = AKT2 (human) (UniProt P31751); details: compound 10.0 µM
AKT3 (human) = AKT3 (human) (UniProt Q9Y243); details: compound 10.0 µM
AURKA (human) = AURKA (human) (UniProt O14965); details: compound 10.0 µM
AURKB (human) = AURKB (human) (UniProt Q96GD4); details: compound 10.0 µM
AURKC (human) = AURKC (human) (UniProt Q9UQB9); details: compound 10.0 µM
DMPK (human) = DMPK (human) (UniProt Q09013); details: compound 10.0 µM
PDPK1 (human) = PDPK1 (human) (UniProt O15530); details: compound 10.0 µM
PKN1 (human) = PKN1 (human) (UniProt Q16512); details: compound 10.0 µM
PRKACA (mouse) = details: compound 10.0 µM; accession and sequence are those of the human protein
PRKACB (human) = PRKACB (human) (UniProt P22694); details: compound 10.0 µM
PRKCD (human) = PRKCD (human) (UniProt Q05655); details: compound 10.0 µM
PRKCE (human) = PRKCE (human) (UniProt Q02156); details: compound 10.0 µM
PRKCG (human) = PRKCG (human) (UniProt P05129); details: compound 10.0 µM
PRKCH (human) = PRKCH (human) (UniProt P24723); details: compound 10.0 µM
PRKCI (human) = PRKCI (human) (UniProt P41743); details: compound 10.0 µM
PRKCQ (human) = PRKCQ (human) (UniProt Q04759); details: compound 10.0 µM
PRKX (human) = PRKX (human) (UniProt P51817); details: compound 10.0 µM
RPS6KA1 KD1 (human) = RPS6KA1 KD1 (human) (UniProt Q15418); details: compound 10.0 µM
RPS6KA2 KD1 (human) = RPS6KA2 KD1 (human) (UniProt Q15349); details: compound 10.0 µM
RPS6KA3 KD1 (human) = RPS6KA3 KD1 (human) (UniProt P51812); details: compound 10.0 µM
RPS6KA4 KD1 (human) = RPS6KA4 KD1 (human) (UniProt O75676); details: compound 10.0 µM
RPS6KA5 KD1 (human) = RPS6KA5 KD1 (human) (UniProt O75582); details: compound 10.0 µM
RPS6KA6 KD1 (human) = RPS6KA6 KD1 (human) (UniProt Q9UK32); details: compound 10.0 µM
SGK2 (human) = SGK2 (human) (UniProt Q9HBY8); details: compound 10.0 µM
SGK3 (human) = SGK3 (human) (UniProt Q96BR1); details: compound 10.0 µM
STK32B (human) = STK32B (human) (UniProt Q9NY57); details: compound 10.0 µM

Molecule O=C1NC(=O)c2c1c(-c1ccccc1)cc1[nH]c3ccc(O)cc3c21 has an inhibition (AKT1 (human)) of 0%, an inhibition (AKT2 (human)) of 0% and an inhibition (AKT3 (human)) of 0%. For the same molecule, the inhibition (AURKA (human)) was 0%, the inhibition (AURKB (human)) was 34% and the inhibition (AURKC (human)) was 24%. The inhibition (DMPK (human)) was 15%, the inhibition (PDPK1 (human)) was 48% and the inhibition (PKN1 (human)) was 0%. For the same molecule, the inhibition (PRKACA (mouse)) was 10%, the inhibition (PRKACB (human)) was 3% and the inhibition (PRKCD (human)) was 12%. It also gave an inhibition (PRKCE (human)) of 5%, an inhibition (PRKCG (human)) of 0% and an inhibition (PRKCH (human)) of 44%. The inhibition (PRKCI (human)) was 0%, the inhibition (PRKCQ (human)) was 42% and the inhibition (PRKX (human)) was 22%. For the same molecule, the inhibition (RPS6KA1 KD1 (human)) was 49%, the inhibition (RPS6KA2 KD1 (human)) was 78% and the inhibition (RPS6KA3 KD1 (human)) was 28%. For the same molecule, the inhibition (RPS6KA4 KD1 (human)) was 62%, the inhibition (RPS6KA5 KD1 (human)) was 45% and the inhibition (RPS6KA6 KD1 (human)) was 27%. It also gave an inhibition (SGK2 (human)) of 26%, an inhibition (SGK3 (human)) of 37% and an inhibition (STK32B (human)) of 0%.
